Measured values from the supplement of paper PMC10849652.
The other results are listed elsewhere or left out.

Chains of the proteins cited; added tags and fusions are not shown. Lines headed by an entry give the natural chain unless they say otherwise; changes in a name come on top.
UniProt O60343: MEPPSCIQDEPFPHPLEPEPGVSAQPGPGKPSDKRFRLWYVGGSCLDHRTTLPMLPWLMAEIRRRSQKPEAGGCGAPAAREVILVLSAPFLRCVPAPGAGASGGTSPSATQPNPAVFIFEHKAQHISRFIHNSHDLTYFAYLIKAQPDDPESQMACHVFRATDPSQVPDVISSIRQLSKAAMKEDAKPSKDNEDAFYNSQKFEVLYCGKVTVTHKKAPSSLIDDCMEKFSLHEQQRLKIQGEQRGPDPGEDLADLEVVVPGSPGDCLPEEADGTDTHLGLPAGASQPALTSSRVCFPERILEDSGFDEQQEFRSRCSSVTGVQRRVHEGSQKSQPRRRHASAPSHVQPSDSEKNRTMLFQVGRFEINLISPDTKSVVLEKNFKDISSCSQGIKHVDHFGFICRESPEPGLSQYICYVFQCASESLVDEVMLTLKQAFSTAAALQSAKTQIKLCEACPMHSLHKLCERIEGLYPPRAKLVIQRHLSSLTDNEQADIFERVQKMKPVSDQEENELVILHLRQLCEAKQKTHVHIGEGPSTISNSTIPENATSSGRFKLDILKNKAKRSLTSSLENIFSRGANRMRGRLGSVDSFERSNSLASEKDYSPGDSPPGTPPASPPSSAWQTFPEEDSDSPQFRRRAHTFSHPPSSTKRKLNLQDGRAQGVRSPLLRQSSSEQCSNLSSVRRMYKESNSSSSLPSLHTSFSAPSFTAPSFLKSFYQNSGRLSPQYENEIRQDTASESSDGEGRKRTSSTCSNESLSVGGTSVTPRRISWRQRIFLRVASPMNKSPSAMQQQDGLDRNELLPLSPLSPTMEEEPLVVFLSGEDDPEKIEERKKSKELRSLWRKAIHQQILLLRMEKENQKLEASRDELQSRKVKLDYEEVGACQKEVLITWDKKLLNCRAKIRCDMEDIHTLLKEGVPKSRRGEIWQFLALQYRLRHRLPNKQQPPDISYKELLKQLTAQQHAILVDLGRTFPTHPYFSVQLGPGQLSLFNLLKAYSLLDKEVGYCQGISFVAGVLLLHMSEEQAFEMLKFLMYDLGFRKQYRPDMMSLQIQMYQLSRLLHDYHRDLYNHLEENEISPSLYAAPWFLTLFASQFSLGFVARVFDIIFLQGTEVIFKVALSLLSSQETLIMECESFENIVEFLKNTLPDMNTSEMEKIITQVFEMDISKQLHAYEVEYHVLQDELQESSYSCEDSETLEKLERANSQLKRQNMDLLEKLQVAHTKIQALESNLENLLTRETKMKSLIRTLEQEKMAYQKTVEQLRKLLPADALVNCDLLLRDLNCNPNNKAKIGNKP
UniProt Q9Y5L4: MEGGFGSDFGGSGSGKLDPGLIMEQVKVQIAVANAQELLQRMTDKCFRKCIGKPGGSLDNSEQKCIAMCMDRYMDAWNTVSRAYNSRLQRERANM
UniProt Q14186: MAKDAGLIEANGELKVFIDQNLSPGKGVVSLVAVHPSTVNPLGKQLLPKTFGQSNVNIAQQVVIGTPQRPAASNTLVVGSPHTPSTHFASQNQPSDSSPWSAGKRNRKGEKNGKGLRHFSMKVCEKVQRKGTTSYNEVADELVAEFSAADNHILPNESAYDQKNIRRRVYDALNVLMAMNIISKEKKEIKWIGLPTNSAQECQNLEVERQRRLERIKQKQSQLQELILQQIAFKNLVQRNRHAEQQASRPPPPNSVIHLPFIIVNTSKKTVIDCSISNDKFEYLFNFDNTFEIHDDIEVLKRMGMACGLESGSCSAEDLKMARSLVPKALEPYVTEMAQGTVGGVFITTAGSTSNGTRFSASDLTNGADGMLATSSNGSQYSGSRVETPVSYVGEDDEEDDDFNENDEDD
UniProt Q9Y5J9: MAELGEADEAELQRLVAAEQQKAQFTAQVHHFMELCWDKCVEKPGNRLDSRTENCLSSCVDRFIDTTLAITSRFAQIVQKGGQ
UniProt Q15814: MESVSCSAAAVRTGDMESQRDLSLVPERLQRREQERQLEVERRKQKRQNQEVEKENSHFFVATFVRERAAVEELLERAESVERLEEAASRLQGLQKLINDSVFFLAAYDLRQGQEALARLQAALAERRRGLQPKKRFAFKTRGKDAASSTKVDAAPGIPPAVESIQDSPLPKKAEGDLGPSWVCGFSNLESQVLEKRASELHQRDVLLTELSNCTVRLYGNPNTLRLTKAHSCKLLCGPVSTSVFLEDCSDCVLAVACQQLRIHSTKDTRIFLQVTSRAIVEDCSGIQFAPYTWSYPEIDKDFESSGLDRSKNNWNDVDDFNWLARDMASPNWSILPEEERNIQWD
UniProt Q86W42: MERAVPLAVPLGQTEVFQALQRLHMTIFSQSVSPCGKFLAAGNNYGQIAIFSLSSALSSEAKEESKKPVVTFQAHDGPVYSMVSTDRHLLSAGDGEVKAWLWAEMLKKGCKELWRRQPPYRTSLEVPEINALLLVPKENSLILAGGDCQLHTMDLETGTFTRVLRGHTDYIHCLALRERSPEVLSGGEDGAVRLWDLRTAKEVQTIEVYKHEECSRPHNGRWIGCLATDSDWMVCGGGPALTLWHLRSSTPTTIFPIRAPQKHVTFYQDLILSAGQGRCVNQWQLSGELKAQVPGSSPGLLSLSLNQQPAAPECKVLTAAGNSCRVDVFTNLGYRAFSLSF
UniProt Q9Y2W6: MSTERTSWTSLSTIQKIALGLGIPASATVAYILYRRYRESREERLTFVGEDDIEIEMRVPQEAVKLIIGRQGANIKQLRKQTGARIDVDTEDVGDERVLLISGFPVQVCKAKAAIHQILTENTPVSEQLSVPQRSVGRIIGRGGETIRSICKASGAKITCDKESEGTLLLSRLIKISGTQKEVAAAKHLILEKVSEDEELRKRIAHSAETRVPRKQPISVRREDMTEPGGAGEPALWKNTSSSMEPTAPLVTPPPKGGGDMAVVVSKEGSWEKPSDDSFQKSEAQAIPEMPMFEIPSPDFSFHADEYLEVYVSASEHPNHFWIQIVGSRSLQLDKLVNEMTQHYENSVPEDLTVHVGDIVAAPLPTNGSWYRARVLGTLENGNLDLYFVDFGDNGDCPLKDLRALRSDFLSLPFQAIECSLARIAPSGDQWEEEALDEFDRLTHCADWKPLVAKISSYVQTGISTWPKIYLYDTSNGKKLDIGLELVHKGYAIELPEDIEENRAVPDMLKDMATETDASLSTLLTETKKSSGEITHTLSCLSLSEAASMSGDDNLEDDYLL
UniProt Q9BSF4: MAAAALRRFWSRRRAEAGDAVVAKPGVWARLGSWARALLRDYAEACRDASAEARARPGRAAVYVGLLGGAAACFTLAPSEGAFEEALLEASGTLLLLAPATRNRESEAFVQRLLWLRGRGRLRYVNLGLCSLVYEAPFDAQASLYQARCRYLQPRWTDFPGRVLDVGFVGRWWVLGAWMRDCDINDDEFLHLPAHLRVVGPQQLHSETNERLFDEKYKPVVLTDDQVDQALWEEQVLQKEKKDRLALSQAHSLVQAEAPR
UniProt Q9UP52: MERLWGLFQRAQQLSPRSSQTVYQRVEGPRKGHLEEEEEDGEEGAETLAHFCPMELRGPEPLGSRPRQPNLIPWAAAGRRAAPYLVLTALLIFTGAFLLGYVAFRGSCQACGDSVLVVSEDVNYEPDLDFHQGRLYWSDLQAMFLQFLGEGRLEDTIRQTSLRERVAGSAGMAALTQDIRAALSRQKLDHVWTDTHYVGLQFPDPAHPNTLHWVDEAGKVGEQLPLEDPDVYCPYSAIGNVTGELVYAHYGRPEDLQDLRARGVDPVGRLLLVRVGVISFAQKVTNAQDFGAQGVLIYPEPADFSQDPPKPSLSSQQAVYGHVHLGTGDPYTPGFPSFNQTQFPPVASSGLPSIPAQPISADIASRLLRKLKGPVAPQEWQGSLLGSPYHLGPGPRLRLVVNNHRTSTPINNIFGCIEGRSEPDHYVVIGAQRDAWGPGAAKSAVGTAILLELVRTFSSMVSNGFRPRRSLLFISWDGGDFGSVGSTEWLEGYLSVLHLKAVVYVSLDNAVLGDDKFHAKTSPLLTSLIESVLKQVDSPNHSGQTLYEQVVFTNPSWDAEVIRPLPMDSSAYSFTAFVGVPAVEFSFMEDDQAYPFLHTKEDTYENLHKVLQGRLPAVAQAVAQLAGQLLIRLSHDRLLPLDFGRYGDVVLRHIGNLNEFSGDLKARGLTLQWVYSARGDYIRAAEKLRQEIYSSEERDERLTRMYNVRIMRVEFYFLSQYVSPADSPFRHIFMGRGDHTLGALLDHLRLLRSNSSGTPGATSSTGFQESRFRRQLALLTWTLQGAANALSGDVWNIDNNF
UniProt Q9UDY2: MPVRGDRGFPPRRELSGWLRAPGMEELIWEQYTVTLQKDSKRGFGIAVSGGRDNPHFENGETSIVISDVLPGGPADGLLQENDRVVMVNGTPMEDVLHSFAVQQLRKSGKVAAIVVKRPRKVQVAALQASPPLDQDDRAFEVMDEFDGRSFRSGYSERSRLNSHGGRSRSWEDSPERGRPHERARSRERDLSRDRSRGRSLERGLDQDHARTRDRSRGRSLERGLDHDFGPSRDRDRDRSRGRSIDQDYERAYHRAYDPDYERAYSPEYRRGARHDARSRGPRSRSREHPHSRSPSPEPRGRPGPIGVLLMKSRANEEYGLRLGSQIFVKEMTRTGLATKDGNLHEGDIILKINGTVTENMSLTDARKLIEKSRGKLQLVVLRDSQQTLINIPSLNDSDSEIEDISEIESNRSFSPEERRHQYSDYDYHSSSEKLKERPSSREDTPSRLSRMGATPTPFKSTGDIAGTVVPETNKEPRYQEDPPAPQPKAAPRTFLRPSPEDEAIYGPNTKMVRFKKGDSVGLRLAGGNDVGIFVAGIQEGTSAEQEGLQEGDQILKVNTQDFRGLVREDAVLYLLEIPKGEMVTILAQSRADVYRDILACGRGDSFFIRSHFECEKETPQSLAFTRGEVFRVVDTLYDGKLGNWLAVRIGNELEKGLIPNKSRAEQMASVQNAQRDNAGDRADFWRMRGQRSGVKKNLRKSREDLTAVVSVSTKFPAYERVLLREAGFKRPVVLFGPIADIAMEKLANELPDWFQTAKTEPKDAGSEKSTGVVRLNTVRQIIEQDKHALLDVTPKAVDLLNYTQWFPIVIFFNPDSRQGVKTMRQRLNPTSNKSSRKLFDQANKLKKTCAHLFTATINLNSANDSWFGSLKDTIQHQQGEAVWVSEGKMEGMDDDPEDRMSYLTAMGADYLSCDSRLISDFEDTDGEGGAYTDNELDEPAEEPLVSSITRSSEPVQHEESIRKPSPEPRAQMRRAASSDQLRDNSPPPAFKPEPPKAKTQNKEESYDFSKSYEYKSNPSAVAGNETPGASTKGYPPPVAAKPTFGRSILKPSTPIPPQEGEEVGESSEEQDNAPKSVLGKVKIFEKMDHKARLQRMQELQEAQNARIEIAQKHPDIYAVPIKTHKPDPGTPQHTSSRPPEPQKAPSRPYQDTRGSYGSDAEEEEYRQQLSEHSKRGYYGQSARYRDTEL
UniProt Q8WVM0: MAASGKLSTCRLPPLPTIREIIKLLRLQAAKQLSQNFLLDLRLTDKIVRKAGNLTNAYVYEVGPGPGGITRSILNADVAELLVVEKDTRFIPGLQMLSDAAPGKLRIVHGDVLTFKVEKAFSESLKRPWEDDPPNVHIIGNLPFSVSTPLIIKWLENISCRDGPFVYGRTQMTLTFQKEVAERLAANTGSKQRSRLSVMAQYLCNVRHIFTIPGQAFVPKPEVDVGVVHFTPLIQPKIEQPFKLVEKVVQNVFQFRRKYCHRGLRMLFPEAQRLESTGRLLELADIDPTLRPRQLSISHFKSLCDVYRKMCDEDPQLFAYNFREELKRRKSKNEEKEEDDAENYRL
UniProt Q9Y4R8, whole entry, looked up: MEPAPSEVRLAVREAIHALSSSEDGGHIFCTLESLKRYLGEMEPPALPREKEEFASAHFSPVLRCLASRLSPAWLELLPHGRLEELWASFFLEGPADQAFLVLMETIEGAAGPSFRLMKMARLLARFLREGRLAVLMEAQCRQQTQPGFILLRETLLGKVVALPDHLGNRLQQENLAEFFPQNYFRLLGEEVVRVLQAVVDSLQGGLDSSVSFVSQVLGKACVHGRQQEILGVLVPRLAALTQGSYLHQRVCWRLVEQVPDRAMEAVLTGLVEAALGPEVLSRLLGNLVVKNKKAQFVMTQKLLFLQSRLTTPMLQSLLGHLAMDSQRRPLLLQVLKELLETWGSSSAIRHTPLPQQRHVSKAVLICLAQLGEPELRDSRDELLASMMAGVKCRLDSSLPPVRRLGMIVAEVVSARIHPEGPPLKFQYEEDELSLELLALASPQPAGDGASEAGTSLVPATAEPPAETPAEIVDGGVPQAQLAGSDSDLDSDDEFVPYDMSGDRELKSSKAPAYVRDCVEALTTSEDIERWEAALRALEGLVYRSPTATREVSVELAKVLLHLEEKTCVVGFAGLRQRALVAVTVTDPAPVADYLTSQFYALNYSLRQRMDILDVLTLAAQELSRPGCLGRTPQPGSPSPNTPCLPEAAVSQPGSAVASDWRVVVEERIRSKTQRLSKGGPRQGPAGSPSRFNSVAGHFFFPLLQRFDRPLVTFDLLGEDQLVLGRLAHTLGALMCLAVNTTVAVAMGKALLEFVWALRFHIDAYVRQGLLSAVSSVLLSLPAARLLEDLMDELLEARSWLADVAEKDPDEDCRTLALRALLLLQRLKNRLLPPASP

What was measured:
Assay in all cases: log2 fold change, soluble protein after heating vs DMSO (PISA); higher = thermal stabilisation; K562 cells, 10 uM, 30 min; active = over 0.2 and 3.5 SD of the protein, either way, in both replicates (recomputed)
[1] = compound: CC1=C(C=C(C=C1)NC(=O)C2=CC(=CC=C2)C(C)(C)C#N)NC3=CC4=C(C=C3)N=CN(C4=O)C
Method in brief: (§1)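 Soluble protein was quantified by TMTpro 16plex LC-MS/MS after channel sums were equalised. It was obtained as the supernatant after 21,000xg for 90 min from pooled aliquots of K562 cells (2×10^6 cells/mL, 10 μM compound, 30 min) heated for 3 min across 48°C-58°C and extracted in PBS with 0.5% NP-40 at 4°C. Thermal stability values are relative to control samples and come from duplicates. They are given as log2 fold changes.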

[2] = compound: CC1=C(C=C(C=C1)NC(=O)C2=CC(=CC=C2)N(C)C)NC(=O)C3=CC=C(C=C3)O
Method in brief: as §1

[3] = compound: CC1=CC=C(C=C1)SC2=C3C=C(SC3=CN=C2)C(=O)N
Method in brief: as §1

[4] = compound: CC1=NC(=CC=C1)C2=C(N=C(N2)C(C)(C)C)C3=CC4=NC=CN=C4C=C3
Method in brief: as §1

Nexturastat A = compound: CCCCN(Cc1ccc(C(=O)NO)cc1)C(=O)Nc1ccccc1 [Nexturastat A]
Method in brief: as §1

vemurafenib = compound: CCCS(=O)(=O)Nc1ccc(F)c(C(=O)c2c[nH]c3ncc(-c4ccc(Cl)cc4)cc23)c1F [vemurafenib]
Method in brief: as §1

[5] = compound: CCCS(=O)(=O)Nc1ccc(F)c(C(=O)c2c[nH]c3ncc(Cl)cc23)c1F
Method in brief: as §1

[6] = compound: CCCc1cc(C)[nH]c(=O)c1CNC(=O)c1cc(-c2ccnc(N3CCN(C)CC3)c2)cc2c1cnn2C(C)C
Method in brief: as §1

givinostat = compound: CCN(CC)Cc1ccc2cc(COC(=O)Nc3ccc(C(=O)NO)cc3)ccc2c1 [givinostat]
Method in brief: as §1

barasertib = compound: CCN(CCCOc1ccc2c(Nc3cc(CC(=O)Nc4cccc(F)c4)[nH]n3)ncnc2c1)CCOP(=O)(O)O [barasertib]
Method in brief: as §1

| Target | log2 fold change [1] | log2 fold change [2] | log2 fold change [3] | log2 fold change [4] | log2 fold change (Nexturastat A) | log2 fold change (vemurafenib) | log2 fold change [5] | log2 fold change [6] | log2 fold change (givinostat) | log2 fold change (barasertib) |
| --- | --- | --- | --- | --- | --- | --- | --- | --- | --- | --- |
| TIMM17A (UniProt Q99595) | inactive: 0.022 | inactive: 0.031 | inactive: 0.062 | inactive: -0.026 | inactive: -0.069 | inactive: 0.025 | inactive: 0.021 | inactive: -0.047 | inactive: 0.037 | inactive: -0.009 |
| TIMM23 (UniProt O14925) | inactive: -0.022 | inactive: 0.001 | inactive: -0.024 | inactive: 0.111 | inactive: 0.013 | inactive: 0.053 | inactive: 0.044 | inactive: -0.048 | inactive: -0.005 | inactive: -0.022 |
| TBC1D22B (UniProt Q9NU19) | inactive: 0.015 | inactive: 0.006 | inactive: 0.019 | inactive: 0.311 | inactive: -0.201 | inactive: -0.062 | inactive: 0.039 | inactive: -0.008 | inactive: 0.087 | inactive: 0.044 |
| THUMPD1 (UniProt Q9NXG2) | inactive: 0.006 | inactive: 0 | inactive: 0.008 | inactive: 0 | inactive: -0.023 | inactive: 0.004 | inactive: 0 | inactive: -0.038 | inactive: -0.014 | inactive: 0.014 |
| TGM2 (UniProt P21980) | inactive: -0.008 | inactive: -0.007 | inactive: 0.007 | inactive: 0.025 | inactive: -0.063 | inactive: -0.009 | inactive: 0.006 | inactive: -0.022 | inactive: -0.021 | inactive: 0.015 |
| TET1 (UniProt Q8NFU7) | inactive: -0.096 | inactive: -0.164 | inactive: 0.112 | inactive: -0.156 | inactive: 0.39 | inactive: 0.021 | inactive: -0.019 | inactive: -0.505 | inactive: 0.464 | inactive: -0.007 |
| TGFBR3 (UniProt Q03167) | inactive: -0.007 | inactive: -0.064 | inactive: 0.042 | inactive: -0.028 | inactive: 0.064 | inactive: 0.104 | inactive: 0.013 | inactive: -0.014 | inactive: 0.034 | inactive: -0.02 |
| TBC1D4 (UniProt O60343) | inactive: -0.023 | inactive: 0.013 | inactive: 0.017 | inactive: -0.007 | inactive: 0.039 | inactive: -0.033 | inactive: 0.034 | inactive: -0.001 | inactive: -0.058 | inactive: 0.028 |
| TIMM13 (UniProt Q9Y5L4) | inactive: 0.086 | inactive: -0.048 | inactive: 0.03 | inactive: 0.143 | inactive: -0.19 | inactive: 0.072 | inactive: 0.015 | inactive: 0.085 | inactive: 0.089 | inactive: -0.035 |
| TFDP1 (UniProt Q14186) | inactive: 0.045 | inactive: 0.056 | inactive: 0.106 | inactive: 0.015 | inactive: 0.114 | inactive: 0.029 | inactive: 0.023 | inactive: -0.128 | inactive: 0.009 | inactive: 0.021 |
| TF (UniProt P02787) | inactive: -0.096 | inactive: 0.665 | inactive: 0.17 | inactive: 0.111 | inactive: 0 | inactive: 0.092 | inactive: -0.204 | inactive: -0.216 | inactive: -0.196 | inactive: -0.139 |
| TIMM8B (UniProt Q9Y5J9) | inactive: 0.106 | inactive: -0.095 | inactive: -0.122 | inactive: 0.319 | inactive: 0.131 | inactive: -0.153 | inactive: 0.066 | inactive: 0.037 | inactive: 0.184 | inactive: 0.062 |
| TBL3 (UniProt Q12788) | inactive: 0.028 | inactive: -0.03 | inactive: -0.024 | inactive: -0.016 | inactive: 0.246 | inactive: -0.011 | inactive: 0 | inactive: 0.054 | inactive: -0.038 | inactive: -0.038 |
| TIMM50 isoform 2 (UniProt Q3ZCQ8) | inactive: -0.017 | inactive: -0.035 | inactive: -0.028 | inactive: 0.02 | inactive: -0.022 | inactive: 0.02 | inactive: 0.006 | inactive: -0.007 | inactive: -0.032 | inactive: 0.061 |
| TBL1XR1 (UniProt Q9BZK7) | inactive: 0.003 | inactive: -0.001 | inactive: 0.006 | inactive: 0.016 | inactive: -0.16 | inactive: -0.018 | inactive: 0.035 | inactive: -0.002 | inactive: -0.048 | inactive: -0.01 |
| TBC1D9B (UniProt Q66K14) | inactive: -0.028 | inactive: 0.116 | inactive: 0.05 | inactive: -0.032 | active: 0.361 | inactive: 0.095 | inactive: 0.048 | inactive: -0.189 | inactive: 0.002 | inactive: 0.04 |
| TBCC (UniProt Q15814) | inactive: 0.033 | inactive: -0.038 | inactive: 0.005 | inactive: 0.007 | inactive: -0.048 | inactive: 0.028 | inactive: 0.06 | inactive: -0.019 | inactive: -0.003 | inactive: -0.012 |
| THOC6 (UniProt Q86W42) | inactive: -0.045 | inactive: 0.026 | inactive: 0.029 | inactive: -0.004 | inactive: 0.009 | inactive: 0.022 | inactive: 0.006 | inactive: 0.02 | inactive: 0.009 | inactive: 0.007 |
| TDRKH (UniProt Q9Y2W6) | inactive: -0.011 | inactive: -0.088 | inactive: -0.036 | inactive: -0.007 | inactive: 0.071 | inactive: 0.042 | inactive: -0.026 | inactive: 0.054 | inactive: 0.091 | inactive: 0.044 |
| TIMM29 (UniProt Q9BSF4) | inactive: -0.007 | inactive: -0.015 | inactive: -0.023 | inactive: -0.102 | inactive: -0.037 | inactive: -0.031 | inactive: 0.033 | inactive: 0 | inactive: 0.014 | inactive: 0.004 |
| TKT isoform 2 (UniProt P29401) | inactive: 0.001 | inactive: 0.021 | inactive: 0.023 | inactive: 0.019 | inactive: -0.073 | inactive: 0.032 | inactive: -0.015 | inactive: 0.051 | inactive: -0.016 | inactive: 0 |
| TCOF1 isoform 4 (UniProt Q13428) | inactive: -0.03 | inactive: 0.015 | inactive: -0.028 | inactive: -0.019 | inactive: -0.001 | inactive: -0.029 | inactive: -0.012 | inactive: -0.004 | inactive: 0.056 | inactive: 0.006 |
| TFR2 (UniProt Q9UP52) | inactive: 0.012 | inactive: -0.018 | inactive: -0.012 | inactive: -0.036 | inactive: -0.031 | inactive: -0.018 | inactive: -0.003 | inactive: -0.029 | inactive: -0.083 | inactive: 0.01 |
| TESC (UniProt Q96BS2) | inactive: -0.009 | inactive: -0.028 | inactive: -0.008 | inactive: -0.039 | inactive: -0.032 | inactive: 0.045 | inactive: 0.019 | inactive: -0.021 | inactive: 0.002 | inactive: 0.026 |
| TJP2 isoform 7 (UniProt Q9UDY2) | inactive: -0.017 | inactive: -0.006 | inactive: 0.007 | inactive: -0.014 | inactive: 0.048 | inactive: 0.09 | inactive: 0.101 | inactive: -0.194 | inactive: 0.071 | inactive: 0.102 |
| TBRG4 (UniProt Q969Z0) | inactive: 0.08 | inactive: -0.006 | inactive: 0.073 | inactive: 0.151 | inactive: -0.072 | inactive: 0.05 | inactive: 0.185 | inactive: -0.059 | inactive: 0.099 | inactive: 0.125 |
| TFB1M (UniProt Q8WVM0) | inactive: -0.034 | inactive: -0.011 | inactive: -0.065 | inactive: -0.1 | inactive: 0.196 | inactive: -0.03 | inactive: -0.043 | inactive: 0.116 | inactive: 0.055 | inactive: -0.034 |
| TELO2 (UniProt Q9Y4R8) | inactive: 0.04 | inactive: -0.026 | inactive: 0.028 | inactive: -0.057 | inactive: 0.143 | inactive: 0.12 | inactive: 0.089 | inactive: 0.014 | inactive: 0.084 | inactive: 0.05 |
| THOC5 (UniProt Q13769) | inactive: -0.045 | inactive: -0.011 | inactive: 0 | inactive: -0.026 | inactive: 0.046 | inactive: -0.011 | inactive: -0.029 | inactive: -0.022 | inactive: -0.012 | inactive: 0.004 |
| THUMPD3 (UniProt Q9BV44) | inactive: 0.051 | inactive: 0.025 | inactive: 0.028 | inactive: 0.047 | inactive: -0.053 | inactive: 0.022 | inactive: 0.053 | inactive: -0.021 | inactive: -0.006 | inactive: 0.011 |

No new results follow: entries from further up.

| Target | log2 fold change [1] | log2 fold change [2] | log2 fold change [3] | log2 fold change [4] | log2 fold change (Nexturastat A) | log2 fold change (vemurafenib) | log2 fold change [5] | log2 fold change [6] | log2 fold change (givinostat) | log2 fold change (barasertib) |
| --- | --- | --- | --- | --- | --- | --- | --- | --- | --- | --- |
| TIMM50 isoform 2 (UniProt Q3ZCQ8) | inactive: -0.017 | inactive: -0.035 | inactive: -0.028 | inactive: 0.02 | inactive: -0.022 | inactive: 0.02 | inactive: 0.006 | inactive: -0.007 | inactive: -0.032 | inactive: 0.061 |
| TBL1XR1 (UniProt Q9BZK7) | inactive: 0.003 | inactive: -0.001 | inactive: 0.006 | inactive: 0.016 | inactive: -0.16 | inactive: -0.018 | inactive: 0.035 | inactive: -0.002 | inactive: -0.048 | inactive: -0.01 |
